Experimental data: PMC4482643
No constants are given. Whether binding was seen depends on the method and setting. Binding seen in cells or lysates may run through a third protein. Some results given as binding are weak or reduced against the parent protein; the word gives no strength. Tags and fused reporters may be left off the sequences shown.

B1: HA-TAK1 (protein, UniProt Q62073 1-579)
chain: MSTASAASSSSSSSASEMIEAPSQVLNFEEIDYKEIEVEEVVGRGAFGVVCKAKWRAKDVAIKQIESESERKAFIVELRQLSRVNHPNIVKLYGACLNPVCLVMEYAEGGSLYNVLHGAEPLPYYTAAHAMSWCLQCSQGVAYLHSMQPKALIHRDLKPPNLLLVAGGTVLKICDFGTACDIQTHMTNNKGSAAWMAPEVFEGSNYSEKCDVFSWGIILWEVITRRKPFDEIGGPAFRIMWAVHNGTRPPLIKNLPKPIESLMTRCWSKDPSQRPSMEEIVKIMTHLMRYFPGADEPLQYPCQYSDEGQSNSATSTGSFMDIASTNTSNKSDTNMEQVPATNDTIKRLESKLLKNQAKQQSESGRLSLGASRGSSVESLPPTSEGKRMSADMSEIEARIVATAGNGQPRRRSIQDLTVTGTEPGQVSSRSSSPSVRMITTSGPTSEKPARSHPWTPDDSTDTNGSDNSIPMAYLTLDHQLQPLAPCPNSKESMAVFEQHCKMAQEYMKVQTEIALLLQRKQELVAELDQDEKDQQNTSRLVQEHKKLLDENKSLSTYYQQCKKQLEVIRSQQQKRQGTS
B2: Myc-tagged TRIM30α (in vitro translated) (protein, UniProt P15533 1-496)
chain: MASSVLEMIKEEVTCPICLELLKEPVSADCNHSFCRACITLNYESNRNTDGKGNCPVCRVPYPFGNLRPNLHVANIVERLKGFKSIPEEEQKVNICAQHGEKLRLFCRKDMMVICWLCERSQEHRGHQTALIEEVDQEYKEKLQGALWKLMKKAKICDEWQDDLQLQRVDWENQIQINVENVQRQFKGLRDLLDSKENEELQKLKKEKKEVMEKLEESENELEDQTELVRDLISDVEHHLELSTLEMLQGANCVLRRSQSLSLQQPQTVPQKRKRTFQAPDLKGMLQVYQGLMDIQQYWVHMTLHARNNAVIAINKEKRQIQYRSYNTVPVSEIYHLGVLGYPALSSGKHYWEVDISRSDAWLLGLNDGKCAQPQLHSKEEMGIKKNLHSQIKQNVLFQPKCGYWVIGMKNPSVYKAFDECSITHNSSILVISLPDRPSRVGVFLDRKAGTLSFYDVSNCGALIYRFYDPAFPVEVYPYFNPMKCSEPMTICGPPS

Assays:
Flag-TRIM30α (mouse) = target: T1, Flag-TRIM30α (mouse) (UniProt P15533); assay: co-IP; HEK293T co-transfected with Flag-TRIM30α and HA-tagged plasmids; lysates 24 h after transfection; IP with anti-Flag Ab and Protein A/G Plus-Agarose overnight at 4°C, blot with anti-HA Ab
T1 sequence: B2 chain

[1] = target: T2, HA-tagged STING (in vitro translated) (mouse) (UniProt Q3TBT3); assay: co-IP; HA-tagged STING and Myc-tagged TRIM30α translated in vitro and mixed; IP with anti-HA, blot with anti-Myc
T2 sequence: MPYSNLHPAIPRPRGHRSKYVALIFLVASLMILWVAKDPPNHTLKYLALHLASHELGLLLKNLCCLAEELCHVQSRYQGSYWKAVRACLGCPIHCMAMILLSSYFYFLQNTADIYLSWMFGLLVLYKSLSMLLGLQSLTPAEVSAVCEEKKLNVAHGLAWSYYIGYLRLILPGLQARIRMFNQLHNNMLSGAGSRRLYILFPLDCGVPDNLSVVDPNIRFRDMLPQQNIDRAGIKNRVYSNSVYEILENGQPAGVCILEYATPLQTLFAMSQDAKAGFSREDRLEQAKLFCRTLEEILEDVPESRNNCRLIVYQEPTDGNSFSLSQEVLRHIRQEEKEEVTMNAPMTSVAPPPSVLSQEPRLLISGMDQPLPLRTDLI

Row | Binder | binding (Flag-TRIM30α (mouse)) | binding [1]
1 | B1 | binds | –
2 | B2 | – | binds
